In doi:10.1101/2021.03.25.437050:
No constants are given. Whether binding was seen depends on the method and setting. Binding seen in cells or lysates may run through a third protein. Some results given as binding are weak or reduced against the parent protein; the word gives no strength.

Target: T1, Homer1 (mouse (endogenous in cultured cortical neurons and brain tissue)), Q9Z2Y3
T1 chain: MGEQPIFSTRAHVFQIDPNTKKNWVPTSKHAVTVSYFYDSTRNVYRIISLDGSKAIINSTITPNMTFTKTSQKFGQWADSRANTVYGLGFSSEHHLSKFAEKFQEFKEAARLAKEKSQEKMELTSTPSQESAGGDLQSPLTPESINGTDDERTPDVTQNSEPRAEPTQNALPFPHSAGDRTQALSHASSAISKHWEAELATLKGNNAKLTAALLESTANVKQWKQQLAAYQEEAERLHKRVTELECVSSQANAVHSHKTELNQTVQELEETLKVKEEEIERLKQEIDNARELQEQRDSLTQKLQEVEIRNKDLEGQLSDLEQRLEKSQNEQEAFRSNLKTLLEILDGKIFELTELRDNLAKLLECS
Assay: co-IP
Conditions: remark: other sources report otherwise

- binding: binds
B1: Homer1, Q9Z2Y3 1-366 (protein)
chain: T1 chain
